According to PubChem BioAssay AID504834 (National Center for Advancing Translational Sciences (NCATS), 2011):
The campaign covered roughly 320,000 compounds. About 22,000 (6.9%) were called active. The shares of active, inactive and inconclusive entries below differ from those in the screen. Calls follow the shape of the dose curve; as a rule, active = well fitted inhibition curve with a large enough effect; inconclusive = small, poorly fitted or top-dose-only effect, or another doubt; inactive = no such curve, though single readings can be large or run the other way. Potencies beside an inconclusive call are fits to weak or partial responses and may not hold up.

Experiment: Primary qHTS for delayed death inhibitors of the malarial parasite plastid, 96 hour incubation
Conditions: P. falciparum luciferase reporter growth; series mostly up to 28.7 µM; activity change, negative = inhibition: at the top concentration
Summary of the method: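 Delayed-death screen, second-generation endpoint: infected erythrocytes, 2% hematocrit, 0.05% parasitemia final; 96 hours at 37 C, 5% CO2; luciferase detection reagent; luminescence decrease equals reduced growth.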
% is scaled to controls: 0 for no effect and ±100 for the full control effect; potency is read from the fitted curve at half-maximal effect.

Question: Which Potency does the source give for COC(=O)Cc1[nH]nc2c1C(c1cccc(OC)c1OC)C(C#N)=C(N)O2 (centres undefined) here?
Answer: Its Potency is inconclusive: 10.4 µM [inhibitor, single point].

Question: Which Potency does the source give for Cc1ccccc1C1(CCN2CCCCC2)CCOC(C)(C)C1 (centres undefined) here?
Answer: Its Potency is inconclusive: 7.38 µM [inhibitor, partial curve].

Question: Which “activity change, negative = inhibition” value does the source give for CN(C)S(=O)(=O)N1CCN(CC(O)COc2ccc(-c3ccccc3)cc2)CC1 (centres undefined) here?
Answer: The value was inactive: 32.4%.

Question: Which “activity change, negative = inhibition” value does the source give for COc1ccc(CNC(=O)CS(=O)(=O)Cc2nc(-c3cccc(OC)c3)oc2C)cc1 here?
Answer: Its value is inactive: 15.7%.

Question: With O=C(COC(=O)c1ncc(Cl)c(Cl)c1Cl)NCc1ccccc1 as the compound, how does the Potency read?
Answer: Its Potency is inconclusive: 20.8 µM [inhibitor, partial curve, poor fit].

Question: Which Potency does the source give for OC(COC(c1ccccc1)c1ccccc1)CN1CCc2ccccc2C1 (centres undefined) here?
Answer: The Potency was inconclusive: 18.5 µM [inhibitor, single point].

Question: With COc1ccc(/C=C/C(=O)NCCN2CCOCC2)cc1OC as the compound, how does the “activity change, negative = inhibition” value read?
Answer: The value was inactive: -6.16%.

Question: With CCn1cc(C(=O)NCC2CCCO2)c(=O)c2cc(F)c(N3CCN(C)CC3)cc21 (centres undefined) as the compound, how does the “activity change, negative = inhibition” value read?
Answer: Its value is inactive: 3.71%.

Question: For CC1=C(CC(=O)O)c2cc(F)ccc2/C1=C\c1ccc(S(C)=O)cc1 (centres undefined), which Potency is on record?
Answer: The Potency was inconclusive: 3.79 µM [inhibitor, partial curve].

Question: Which Potency does the source give for CC(=O)CC1(O)C(=O)N(Cc2ccccc2)c2ccccc21 (centres undefined) here?
Answer: Its Potency is inconclusive: 18.5 µM [inhibitor, single point].

Question: With CC(=O)Nc1ccc(SC[C@H](Cc2ccccc2)N2CCN(CCc3ccccc3)CCC2=O)cc1 as the compound, how does the Potency read?
Answer: Its Potency is active: 2.94 µM.

Question: Which Potency does the source give for CCCCCOC(=O)C1[C@H]2C(=O)N(Cc3cccs3)C[C@]23C=C[C@H]1O3 (some centres undefined) here?
Answer: Its Potency is inconclusive: 13.1 µM [inhibitor, single point].

Question: With CCOc1ccc(C(=O)CCC(=O)NN2C(=O)NC3(CCCCC3)C2=O)cc1 as the compound, how does the “activity change, negative = inhibition” value read?
Answer: Its value is inactive: -29.8%.

Question: For CCOc1ccc(NC(=O)CCCCCN2C(=O)[C@@H]3Cc4ccccc4CN3C2=O)cc1, which Potency is on record?
Answer: The Potency was inconclusive: 10.4 µM [inhibitor, single point].

Question: For COc1ccc(OC)c(C2C(C#N)=C(N)Oc3cc(N)ccc32)c1 (centres undefined), which Potency is on record?
Answer: The Potency was inconclusive: 2.94 µM [inhibitor, partial curve, poor fit].

Question: With O=C(NCCCN1CCCC1=O)Nc1ccc(F)c(Cl)c1 as the compound, how does the “activity change, negative = inhibition” value read?
Answer: The value was inactive: 85.7%.

Question: Which Potency does the source give for O=C(O)CCC(=O)OCc1c(-c2ccccc2)ncc2ccccc12 here?
Answer: The Potency was inconclusive: 2.62 µM [inhibitor, single point].

Question: With COc1ccccc1NC(=S)NC1CCC(CC2CCC(NC(=S)Nc3ccccc3OC)CC2)CC1 (centres undefined) as the compound, how does the Potency read?
Answer: The Potency was active: 8.28 µM.

Question: For CC12CCC(=O)N1C(C(=O)NCCc1ccccc1)CS2 (centres undefined), which Potency is on record?
Answer: Its Potency is inconclusive: 18.5 µM [inhibitor, single point].

Question: For Cc1ccc(SC2CCN(C(=O)C3CCC(=O)N(C4CC4)C3)CC2)cc1 (centres undefined), which Potency is on record?
Answer: Its Potency is inconclusive: 18.5 µM [inhibitor, partial curve, poor fit].

Question: Which Potency does the source give for CCc1nnc(NC(=O)C2CCN(S(=O)(=O)c3ccc(C)cc3)CC2)s1 here?
Answer: The Potency was inconclusive: 10.4 µM [inhibitor, single point].

Question: Which Potency does the source give for COc1ccc(CCNS(=O)(=O)c2ccc3c(c2)CCN3C(=O)C2CC2)cc1OC here?
Answer: Its Potency is inconclusive: 6.57 µM [inhibitor, partial curve, poor fit].

Question: Which Potency does the source give for CC(C)C[C@H]1CN=C(Nc2ccccc2)N1CCCC1CCCCC1 here?
Answer: Its Potency is inconclusive: 18.5 µM [inhibitor, partial curve, poor fit].

Question: With CC(=O)c1ccc(NC(=O)C2CCCN(c3ncnc4c3nc3n4CCCCC3)C2)cc1 (centres undefined) as the compound, how does the Potency read?
Answer: The Potency was active: 6.57 µM.

Question: With C/C(=N\Nc1cc(C)nc(-c2ccccc2O)n1)c1ccccc1 as the compound, how does the Potency read?
Answer: The Potency was inconclusive: 2.62 µM [inhibitor, full curve].

Question: Which Potency does the source give for CS(=O)(=O)c1nc(S(=O)(=O)c2ccc(Cl)cc2)c(NCCCN2CCOCC2)s1 here?
Answer: Its Potency is inconclusive: 14.7 µM [inhibitor, partial curve].

Question: With N#C/C(=C/c1ccc(Br)o1)C(N)=O as the compound, how does the “activity change, negative = inhibition” value read?
Answer: Its value is inactive: 7.17%.

Question: For N#Cc1c(N2CCOCC2)nc(N2CCCCC2)c2c1CCN(C1CCCCC1)C2, which Potency is on record?
Answer: Its Potency is active: 1.47 µM.

Question: With CC(C)(C)c1ccccc1OCC(O)CN1CCN(c2ccccn2)CC1 (centres undefined) as the compound, how does the Potency read?
Answer: The Potency was inconclusive: 18.5 µM [inhibitor, single point].

Question: For COc1ccc(CC(=O)NC(C)c2nnc(SCC(=O)c3ccc(Br)cc3)n2C)cc1 (centres undefined), which Potency is on record?
Answer: Its Potency is inconclusive: 13.1 µM [inhibitor, single point].

Question: Which Potency does the source give for Cc1cccc(NS(=O)(=O)c2cccc3cccnc23)n1 here?
Answer: The Potency was active: 1.65 µM.

Question: With NC(=O)C1=C[C@H](c2coc3ccccc3c2=O)C[C@H](OCc2ccc(CO)cc2)O1 as the compound, how does the Potency read?
Answer: The Potency was inconclusive: 13.1 µM [inhibitor, single point].

Question: Which “activity change, negative = inhibition” value does the source give for CCCc1nnc(NC(=O)CCC(=O)Nc2ccc(Cl)cc2)s1 here?
Answer: The value was inactive: -5.69%.

Question: With O=C(CCCCCNc1nc(=S)[nH]c2ccccc12)NCCC1=CCCCC1 as the compound, how does the “activity change, negative = inhibition” value read?
Answer: Its value is inactive: -0.301%.

Question: With C/C(N)=C(/C#N)C(=O)CSc1nc2ccccc2c(=O)n1Cc1ccc(F)cc1 as the compound, how does the Potency read?
Answer: Its Potency is inconclusive: 10.4 µM [inhibitor, partial curve, poor fit].

Question: For C=CCNC(=O)/C(C#N)=C/c1ccc(C)o1, which “activity change, negative = inhibition” value is on record?
Answer: Its value is inactive: 10.6%.

Question: For Cc1onc(-c2ccccc2)c1-c1ccc(S(N)(=O)=O)cc1, which Potency is on record?
Answer: The Potency was inconclusive: 16.9 µM [inhibitor, single point].

Question: For COc1ccccc1CC(=O)N1CCOCC1, which “activity change, negative = inhibition” value is on record?
Answer: Its value is inactive: -27.3%.

Question: Which Potency does the source give for CCc1ccccc1NC(=O)c1cc2ncc(Br)cn2n1 here?
Answer: Its Potency is inconclusive: 11.7 µM [inhibitor, partial curve, poor fit].

Question: Which Potency does the source give for CCOC(=O)CCC(=O)NCc1ccc2[nH]c(C)cc2c1 here?
Answer: Its Potency is inconclusive: 0.147 µM [inhibitor, full curve].

Question: With COC(CNC(=O)c1ccc2nc(-c3cccs3)c(-c3cccs3)nc2c1)OC as the compound, how does the Potency read?
Answer: Its Potency is inconclusive: 11.7 µM [inhibitor, single point].

Question: With O=C(Nc1ccn(Cc2ccccc2F)n1)c1ccc(COc2cc(Cl)ccc2Cl)o1 as the compound, how does the Potency read?
Answer: Its Potency is inconclusive: 11.7 µM [inhibitor, partial curve, poor fit].

Question: For Cc1cccc2cc(-c3ccccc3)c(-c3ccccc3)c[n+]12, which Potency is on record?
Answer: Its Potency is active: 1.31 µM.

Question: Which Potency does the source give for COc1cccc(O)c1CN1CCC(Oc2ccc(C(=O)NCc3ccccn3)cc2)CC1 here?
Answer: The Potency was inconclusive: 13.1 µM [inhibitor, partial curve, poor fit].
